# According to PubChem BioAssay AID624297 (National Center for Advancing Translational Sciences (NCATS), 2012):
# About 6,200 (1.8%) of roughly 340,000 compounds were called active. This list was built around the results that the source calls inconclusive (neither active nor inactive); the mix of calls is not that of the screen. Calls come from the whole dose curve; as a rule, active = well fitted activation curve with a large enough effect; inconclusive = small, poorly fitted or top-dose-only effect; inactive = no such curve, though single readings can be large or run the other way. Potencies beside an inconclusive call are fits to weak or partial responses and may not hold up.
# Experiment: A quantitative high throughput screen for small molecules that induce DNA re-replication in SW480 colon adenocarcinoma cells. For re-replication activation: % of control where 0% means no effect. Note: nearly all actives have a fitted effect of over 55% in size.
# Settings: Hoechst DNA content imaging, 48 h; re-replication activation: at 46.1 µM (top of the series)
# In short: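 Image-based read-out: total Hoechst fluorescence of nuclei (405 nm excitation, 500-530 nm emission), with hits raising the fraction of high-intensity nuclei. SW480 colon cells incubated 48 hr with compounds at 37 C.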
# Potency is the fitted concentration of half-maximal effect.
Compound,re-replication activation,Potency
O=Cc1cccn1-c1nccc(-c2ccco2)n1,inactive: -38.2% [at 1.84 µM],–
CCOc1ccccc1/C=N/n1c(COc2ccccc2)n[nH]c1=S,inactive: -4.92%,–
COc1ccc2nc(N(CCN(C)C)C(=O)/C=C/c3cccs3)sc2c1,inactive: 3.38%,–
COCCCN1C(=O)C(=O)/C(=C(/O)c2ccc(C)cc2)C1c1ccccc1 (stereo not drawn),inactive: -2.98%,–
COc1ccc(CN(C(=O)c2ccc(-c3ccccc3)[nH]2)C(C(=O)NC(C)(C)C)c2ccncc2)cc1 (stereo not drawn),–,"inconclusive: 29.1 µM [activator, single point]"
CCOc1ccc(CNC(=O)c2ccc(Sc3ccc(C)cc3)c(NC(C)=O)c2)cc1OC,inactive: 1.06%,–
CCC(C)Sc1cc(-c2nc3ccc(Cl)cn3c2NC2CCCCC2)ccc1OC (stereo not drawn),–,"inconclusive: 16.4 µM [activator, partial curve, poor fit]"
CCOC(=O)c1ccc2c(c1)[nH]c(=S)n2CC,inactive: 0.141%,–
Cc1ccccc1NC(=O)CN1C(=O)S/C(=C/c2cccnc2)C1=O,inactive: -2.4%,–
Cc1ccc(Cn2nnc3c(=O)[nH]c(C4CCN(S(=O)(=O)Cc5ccccc5)CC4)nc32)cc1,–,"inconclusive: 29.1 µM [activator, single point]"
COc1ccc(C(=O)/C=C/c2ccc(N3CCCCC3)c([N+](=O)[O-])c2)cc1,–,"inconclusive: 29.1 µM [activator, single point]"
Cc1ccc(NC(=O)CCC(=O)N/N=C/c2ccc(O)cc2O)cc1,–,"inconclusive: 5.8 µM [activator, full curve, poor fit]"
CC(=O)Nc1ccc(NC2=C/C(=N/S(=O)(=O)c3cccs3)c3ccccc3C2=O)cc1,–,active: 4.11 µM
C#CCN1C=CC(=O)[C@@H](O)[C@H]1c1ccccc1Br,–,"inconclusive: 0.0046 µM [activator, full curve, poor fit]"
COc1ccc(CSc2nncn2N)cc1[N+](=O)[O-],inactive: -0.169%,–
Cc1cc(NCCCN)nc(-c2ccccc2O)n1,–,"inconclusive: 23.1 µM [activator, single point]"
O=C(Nc1ccc(C(=O)N2CCOCC2)cc1)c1cc(-c2cccnc2)nc2ccc(Cl)cc12,–,"inconclusive: 29.1 µM [activator, single point]"
Cc1nn2c(C(F)(F)F)cc(-c3ccc(Cl)cc3)nc2c1C(=O)N1CCOCC1,inactive: -5.22%,–
COc1ccc(/C=N/NC(=O)c2cccnc2)c(C(=O)O)c1OC,inactive: -11.3%,–
O=C(Nc1nc2ccsc2c(=O)s1)c1ccco1,–,"inconclusive: 23.1 µM [activator, single point]"
O=C(CCN1C(=O)S/C(=C\c2ccccc2)C1=O)NC1CCS(=O)(=O)C1 (stereo not drawn),inactive: 12.2%,–
O=C(CN1C(=O)c2ccccc2S1(=O)=O)c1ccc(OC(F)F)cc1,inactive: 1.67%,–
COc1ccc(C(=O)Nc2cccc(-c3csc(C)n3)c2)cc1S(=O)(=O)N1CCCC1,inactive: -6.79%,–
[O-]/[N+](=C\c1ccncc1)c1ccccc1,inactive: -6.09%,–
O=C(Cc1cc2ccccc2o1)NCc1ccc(F)cc1,–,"inconclusive: 29.1 µM [activator, single point]"

Compound,re-replication activation,Potency
CC(=O)OCC1OC(Sc2cccc3cccnc23)C(OC(C)=O)C(OC(C)=O)C1OC(C)=O (stereo not drawn),–,"inconclusive: 35.5 µM [activator, single point]"
Cc1ccc(CC(NC(=O)c2ccc(C)cc2)C(=O)O)cc1 (stereo not drawn),–,"inconclusive: 29.1 µM [activator, partial curve, poor fit]"
COc1c(Cl)cc(Cl)cc1CNCCO,–,"inconclusive: 29.1 µM [activator, partial curve, poor fit]"
Cc1ncsc1C(=O)N1CCCC(C(=O)c2ccc3ccccc3c2)C1 (stereo not drawn),–,"inconclusive: 20.6 µM [activator, single point]"
Cc1[nH]n(-c2ccccc2)c(=O)c1C=NC1CCCCC1,–,"inconclusive: 20.6 µM [activator, partial curve, poor fit]"
O=c1oc(=O)c2ccccc2c2ccccc12,inactive: -1.21%,–
COc1cc2c(c(OC)c1OC)C(c1ccccc1C)CC(=O)O2 (stereo not drawn),–,"inconclusive: 6.51 µM [activator, single point]"
CCOc1cc(/C=N\NC(=O)Cc2ccccc2)ccc1OCC(=O)Nc1ccc(C)c(C)c1,inactive: -1.04%,–
COc1cc(C(=O)OCCCN=C2NS(=O)(=O)c3ccccc32)cc(OC)c1OC,inactive: -20.7%,–
Fc1ccc(NC(=S)NCc2cccs2)cc1,–,"inconclusive: 29.1 µM [activator, single point]"
CCn1nc(NC(=O)Cc2ccc(OC)cc2)c2cc3cccc(C)c3nc21,–,"inconclusive: 14.6 µM [activator, partial curve, poor fit]"
FC(F)(F)c1ccc2c(c1)nc1n2CCCC1,inactive: -11.5%,–
COc1ccc(/C(N)=N/OC(=O)CCC2CCCC2)cc1OC,–,"inconclusive: 29.1 µM [activator, single point]"
Cc1ccc([N+](=O)[O-])cc1N/C=C1\CCCCC1=O,inactive: -0.519%,–
CC1Cc2ccccc2N1C(=O)CSc1nc(-c2ccccc2)cs1 (stereo not drawn),inactive: -3.64%,–
COc1ccc(C(=O)Nc2ccc(NC(=O)c3cccs3)cc2)cc1[N+](=O)[O-],inactive: 13.5%,–
CCOC(=O)c1cc(-c2ccc(F)cc2)n(CCC(=O)NC2CCN(Cc3ccccc3)CC2)c1C,–,"inconclusive: 29.1 µM [activator, single point]"
C=CCOc1ccc(C2CC(C)=NN2c2ccccc2)cc1 (stereo not drawn),–,"inconclusive: 11.6 µM [activator, partial curve, poor fit]"
C/C(=N\NC(=O)c1ccco1)c1cc2ccccc2o1,inactive: 7.14%,–
CCNc1ccc(S(=O)(=O)C(F)(F)F)cc1NC(=O)C12CCC(CC1)C2,inactive: 8.82%,–
N#Cc1c(-c2ccccc2)cc(-c2ccccc2)nc1SCCC(=O)O,inactive: 3.9%,–
O=C1/C(=C\c2cc([N+](=O)[O-])ccc2O)SC(=S)N1Cc1ccc(Cl)cc1,inactive: -8.33%,–
COC(=O)c1sc(-c2ccc(Cl)cc2)cc1NC(=O)/C=C/C(=O)O,–,"inconclusive: 18.4 µM [activator, single point]"
COc1ccccc1-c1cn[nH]c1-c1ccc(OCC(=O)NN)cc1O,inactive: 0.202%,–
CCCNC(=O)C(Cc1cccc(Cl)c1)NC(=O)c1ccccc1 (stereo not drawn),–,"inconclusive: 23.1 µM [activator, partial curve, poor fit]"

Compound,re-replication activation,Potency
Cc1nn(C)cc1C(C(=O)NC1CCCCC1)N(C(=O)Cn1nnc2ccccc21)c1ccc(F)cc1 (stereo not drawn),–,"inconclusive: 20.6 µM [activator, partial curve, poor fit]"
CSc1ncccc1C(=O)Nc1nc(C(C)(C)C)cs1,–,"inconclusive: 18.4 µM [activator, partial curve, poor fit]"
Cc1cccc(NC(=O)c2sc3nc(N4CCOCC4)c4c(c3c2N)CCCC4)c1,inconclusive: 27.9% [activator],–
Cc1ccc(NC(=O)Cn2cc([N+](=O)[O-])nc2C)cc1C,–,"inconclusive: 0.116 µM [activator, full curve, poor fit]"
CC(=O)c1ccc(N2C(=NC(=O)C3CCCO3)SC3CS(=O)(=O)CC32)cc1 (stereo not drawn),–,"inconclusive: 18.4 µM [activator, single point]"
COC(=O)c1ccc(COC(=O)C2CC(O)CN2S(=O)(=O)c2ccc([N+](=O)[O-])cc2)cc1 (stereo not drawn),–,"inconclusive: 20.6 µM [activator, single point]"
CCN(CC(=O)Nc1ccccc1C(F)(F)F)C(=O)c1cccc(N2C(=O)CCC2=O)c1,inactive: 0.427%,–
COc1cc(OC)cc(-c2nc(SCC(=O)Nc3ccccc3F)n[nH]2)c1,–,"inconclusive: 0.82 µM [activator, full curve, poor fit]"
CN(C)c1nc(=NCc2cccs2)ss1,–,"inconclusive: 29.1 µM [activator, single point]"
CC(C)=N/N=C1/NC(=O)C(c2ccc(Cl)cc2)S1 (stereo not drawn),inactive: -5.01%,–
Cc1ccc(C)c(S(=O)(=O)N2CCCCC2CCNC(=O)C(=O)NCCc2ccco2)c1 (stereo not drawn),inactive: 9.02%,–
C/C(=N\NC(=O)c1cc(C)nc2ccccc12)c1ccccn1,–,"inconclusive: 5.17 µM [activator, single point]"
O=C(c1c(F)cccc1F)N(Cc1ccccn1)C1CCCC1,inactive: -4.94%,–
C[C@H](Oc1ccccc1)C(=O)N[C@@H]1C(=O)N2[C@@H]1SC(C)(C)[C@@H]2C(=O)O,–,"inconclusive: 5.08 µM [activator, single point]"
Cc1cc2nn(-c3cccc4ccccc34)nc2cc1N,inactive: 17.4%,–
COC(=O)Cc1c(C)c2ccc(O)c(CN3CCCC(C)C3)c2oc1=O (stereo not drawn),–,"inconclusive: 20.6 µM [activator, single point]"
CC(Oc1ccc(Cl)cc1)C(=O)NCCN1C(=O)S/C(=C\c2cccnc2)C1=O (stereo not drawn),inactive: 0.991%,–
CN(C(=O)CCN1C(=O)/C(=C/c2ccccc2F)SC1=S)C1CCS(=O)(=O)C1 (stereo not drawn),–,"inconclusive: 18.4 µM [activator, partial curve, poor fit]"
Cc1ccc(O)c(-c2cc(-c3cccc(Br)c3)n[nH]2)c1,–,"inconclusive: 29.1 µM [activator, single point]"
COc1cc(/C=C2\SC(=S)N(CCC(=O)N3CCN(C)CC3)C2=O)cc(OC)c1OC,inactive: 23.1%,–
CCOC(=O)Cc1csc(NC(=O)CSc2nccn2C)n1,–,"inconclusive: 25.9 µM [activator, single point]"
COc1cc(NCCC(=O)c2cccs2)c(OC)cc1Cl,–,"inconclusive: 14.6 µM [activator, single point]"
CCc1cc(=O)oc2c(C)c(OC(C)C(=O)NCCCN3CCOCC3)ccc12 (stereo not drawn),–,"inconclusive: 6.51 µM [activator, partial curve, poor fit]"

# 15 entries from above, with bars between the fields.
Compound | re-replication activation | Potency
Cc1ccc(NC(=O)Cn2cc([N+](=O)[O-])nc2C)cc1C | – | inconclusive: 0.116 µM [activator, full curve, poor fit]
CC(=O)c1ccc(N2C(=NC(=O)C3CCCO3)SC3CS(=O)(=O)CC32)cc1 (stereo not drawn) | – | inconclusive: 18.4 µM [activator, single point]
COC(=O)c1ccc(COC(=O)C2CC(O)CN2S(=O)(=O)c2ccc([N+](=O)[O-])cc2)cc1 (stereo not drawn) | – | inconclusive: 20.6 µM [activator, single point]
CCN(CC(=O)Nc1ccccc1C(F)(F)F)C(=O)c1cccc(N2C(=O)CCC2=O)c1 | inactive: 0.427% | –
COc1cc(OC)cc(-c2nc(SCC(=O)Nc3ccccc3F)n[nH]2)c1 | – | inconclusive: 0.82 µM [activator, full curve, poor fit]
CN(C)c1nc(=NCc2cccs2)ss1 | – | inconclusive: 29.1 µM [activator, single point]
CC(C)=N/N=C1/NC(=O)C(c2ccc(Cl)cc2)S1 (stereo not drawn) | inactive: -5.01% | –
Cc1ccc(C)c(S(=O)(=O)N2CCCCC2CCNC(=O)C(=O)NCCc2ccco2)c1 (stereo not drawn) | inactive: 9.02% | –
C/C(=N\NC(=O)c1cc(C)nc2ccccc12)c1ccccn1 | – | inconclusive: 5.17 µM [activator, single point]
O=C(c1c(F)cccc1F)N(Cc1ccccn1)C1CCCC1 | inactive: -4.94% | –
C[C@H](Oc1ccccc1)C(=O)N[C@@H]1C(=O)N2[C@@H]1SC(C)(C)[C@@H]2C(=O)O | – | inconclusive: 5.08 µM [activator, single point]
Cc1cc2nn(-c3cccc4ccccc34)nc2cc1N | inactive: 17.4% | –
COC(=O)Cc1c(C)c2ccc(O)c(CN3CCCC(C)C3)c2oc1=O (stereo not drawn) | – | inconclusive: 20.6 µM [activator, single point]
CC(Oc1ccc(Cl)cc1)C(=O)NCCN1C(=O)S/C(=C\c2cccnc2)C1=O (stereo not drawn) | inactive: 0.991% | –
CN(C(=O)CCN1C(=O)/C(=C/c2ccccc2F)SC1=S)C1CCS(=O)(=O)C1 (stereo not drawn) | – | inconclusive: 18.4 µM [activator, partial curve, poor fit]
